Patent publication US12648939B2, “Compounds and methods for treating spasticity” (Lexicon Pharmaceuticals, Inc., priority 2022, dated 2026)
For part of these data: At least one compound was matched to its structure with a doubt left. Some of these results come from one statement about several compounds together.

What was measured:
[1] = system: rat model of spasticity induced by complete spinal cord transection; assay: Muscle spasms evoked by tibial nerve stimulation in chronic SCI rats; assay type: in vivo; conditions: single P.O. 4.5 mg/kg; recordings up to 6 hours
Description: (§1) The efficacy of Compound 1 was measured in a rat model of spasticity induced by complete spinal cord transection. To induce muscle spasticity, a model of complete spinal cord transection cord at the eighth thoracic (T8) vertebral level was used. Five weeks after the Spinal Cord Injury (SCI), the rats were orally (P.O.) treated with Compound 1 (3, 10, or 30 mg/kg), Baclofen (4.5 mg/kg). Tizanidine (3 mg/kg) or vehicles alone (0.9% NaCl, Compound 1 vehicle), and the degree of spasticity response was measured using the rate-dependent depression (RDD) of the Hoffmann's reflex (H-reflex) and spasms induction.
Materials and Methods. […] One hundred and fifty-one SCI rats were maintained up to the end of the 5th post-injury week. […]
Muscles spasms: In awake chronic SCI rats, muscle spasms were evoked with stimulation of the tibial nerve while performing electromyographic (EMG) recordings from the flexor digitorum brevis (FDB) muscle. […] EMG were rectified and averaged over 2000 ms interval post-stimulus to quantify spasms (Clamplit 8.0, Axon Instruments).
(§2) Data analysis: H-reflex RDDs and areas under the curves (AUC) were determined as a measurement of spasticity and analyzed at each time point and for each frequency with Mann-Whitney test or with Kruskal Wallis one-way analysis of variance (ANOVA) test, followed by Dunn's multiple comparisons test. […]

[2] = system: rat model of spasticity induced by complete spinal cord transection; assay: Rate-dependent depression (RDD) of the H-reflex in SCI rats; assay type: in vivo; conditions: single P.O. 4.5 mg/kg; recordings up to 6 hours
Description: as §1
Materials and Methods. […]
RDD of the H-reflex: To induce sedation, intraperitoneal injection of ketamine (100 mg/kg; Imalgen®) was used to suppress voluntary movements and increase muscle tone. […] Determination of the level of RDD: at the different frequencies, responses to the first three stimulations necessary for the depression to occur were discarded, and all the responses were expressed as percentages relative to the mean response at 0.2 Hz in the same series of measurements.
as §2

[3] = system: myelin oligodendrocyte glycoprotein (MOG)-induced murine model of experimental autoimmune encephalomyelitis (EAE); assay: Mechanical allodynia evaluation (Von Frey testing) in EAE model; assay type: in vivo, C57BL/6J mice; conditions: 3 mg/kg PO, Day 9
Description: (§3) The effect of Compound 1 on spasticity was evaluated in a myelin oligodendrocyte glycoprotein (MOG)-induced murine model of experimental autoimmune encephalomyelitis (EAE), a central nervous system (CNS) autoimmune demyelinating disease that mimics many of the clinical and pathologic features of multiple sclerosis. Gilgun-Sherki Y., et al., Neurosciences Research 47:201-207, 2003.
(§4) Study Design and Results. This study used sixty female young adult (10-11 weeks at study initiation) C57BL/6J mice sourced from Envigo RMS (Israel), Ltd. The animals were divided into five experimental groups:
(§5) FIG. 1 provides a representation of the study. Following baseline measurements, the MOG murine model begins with a sensitization period induced by the single subcutaneous (SC) injection of MOG emulsified in Complete Freund's adjuvant (CFA) on Study Day 0, followed by intraperitoneal (IP) supplemental immunostimulation with pertussis toxin (PT) carried out once at the day of EAE induction (study day 0) and once again 48 hours later (on study day 2). […] Mechanical allodynia was tested using the Von Frey test at Baseline and on Day 9 at various timepoints. For evaluation of spasticity, transcranial motor-evoked potentials (tcMEPs) were tested at Baseline and on Days 9 and 21-22 (half of the animals on each day). All animals were administered treatment once daily, starting on Day 0 until Day 22. […]

[4] = system: myelin oligodendrocyte glycoprotein (MOG)-induced murine model of experimental autoimmune encephalomyelitis (EAE); assay: Electrophysiology (EMG, transcranial motor-evoked potentials) in EAE model; assay type: in vivo, C57BL/6J mice; conditions: 3 mg/kg PO QD
Description: as §3, §4
(§6) Each group received a dose volume of 5 ml/kg, and the regimen was performed daily from day 0 to 22 of the study, QD. On study day 21, half of the animals in each group was treated and tested for electrophysiology and electromyography (EMG) two hours post dosing. On study day 22, the same was performed with the remaining half of the animals in each group.
FIG. 1 provides a representation of the study. Following baseline measurements, the MOG murine model begins with a sensitization period induced by the single subcutaneous (SC) injection of MOG emulsified in Complete Freund's adjuvant (CFA) on Study Day 0, followed by intraperitoneal (IP) supplemental immunostimulation with pertussis toxin (PT) carried out once at the day of EAE induction (study day 0) and once again 48 hours later (on study day 2). […] Mechanical allodynia was tested using the Von Frey test at Baseline and on Day 9 at various timepoints. For evaluation of spasticity, transcranial motor-evoked potentials (tcMEPs) were tested at Baseline and on Days 9 and 21-22 (half of the animals on each day). All animals were administered treatment once daily, starting on Day 0 until Day 22. Animals in Group 1 received oral (PO) treatment with the vehicle. Animals in Group 2 were treated with Fingolimod (FTY720; positive control) at a dose level of 3 mg/kg. PO. Animals in Groups 3 and 4 were treated with the test item Compound 1 at a dose level of 10 mg/kg or 3 mg/kg, PO, respectively. Animals in Group 5 were treated with Tizanidine at a dose level of 1 mg/kg, IP.
Electrophysiology: The animals were subjected to electrophysiology testing at Baseline and Days 10 and 21 of the study. The EMG, latency, latency to main event, duration, peak-to-peak (P2P) amplitude, and number of subpeaks were recorded.

[5] = system: myelin oligodendrocyte glycoprotein (MOG)-induced murine model of experimental autoimmune encephalomyelitis (EAE); assay: EAE clinical score and AUC; assay type: in vivo, C57BL/6J mice; conditions: 3 mg/kg PO QD
Description: as §3, §4, §5

[6] = system: myelin oligodendrocyte glycoprotein (MOG)-induced murine model of experimental autoimmune encephalomyelitis (EAE); assay: Body weight in MOG-induced EAE model; assay type: in vivo, C57BL/6J mice; conditions: 3 mg/kg PO QD; Day 16; vehicle 82.06±2.35%
Description: as §3, §4, §6
FIG. 1 provides a representation of the study. Following baseline measurements, the MOG murine model begins with a sensitization period induced by the single subcutaneous (SC) injection of MOG emulsified in Complete Freund's adjuvant (CFA) on Study Day 0, followed by intraperitoneal (IP) supplemental immunostimulation with pertussis toxin (PT) carried out once at the day of EAE induction (study day 0) and once again 48 hours later (on study day 2). […]

Compound	duration of action (muscle spasms) [1]	duration of action (H-reflex RDD) [2]	withdrawal force threshold effect versus vehicle ([3]; 3.5- and 5.5-hour post-dose)	withdrawal force threshold (Von Frey) ([3]; 1.5 hours post dosing, vehicle 0.89±0.11 g)	latency ([4]; Day 10, vehicle 6.94±0.59 ms)	latency until reaching the main event ([4]; Day 10, vehicle 10.05±2.59 ms)	peak-to-peak (P2P) amplitude ([4]; Day 10, vehicle 7681.17±1505.12 μV)	number of sub peaks ([4]; Day 21, vehicle 4.93±1.72)	rate of fibrillation (EMG) ([4]; Day 21, vehicle printed 1.11±4.69 Hz)	maximal EAE clinical score ([5]; Days 20 and 21, vehicle maximum 3.91±0.28 on Day 17)	EAE clinical score ([5]; day not given, vehicle 3.45±0.25)	mean BW presented as percentage from Baseline [6]
NCC(CC(=O)O)c1ccc(Cl)cc1 (stereo not drawn) [Baclofen]	at least 6 hours	at least 6 hours										
CCCCCCCCc1ccc(CCC(N)(CO)CO)cc1 [FTY720, Fingolimod]			not significant	1.40 ± 0.10 g	5.16 ± 0.16 ms	5.16 ± 0.16 ms	13472.18±1099.82 μV	1.61±0.51	0.41±0.89 Hz	2.18±0.50 points	1.2710.43 points	99.34±3.60%
